No constants are given. Whether binding was seen depends on the method and setting. Some entries that bind do so weakly or less than the wild type.
How the values were obtained:
recombinant human BMP-2 [1] = target: T1, recombinant human BMP-2 (human, UniProt P12643 283-396); assay: release of rhBMP-2 from coated wells, hBMP-2 ELISA
recombinant human BMP-2 [2] = target: T1, recombinant human BMP-2; assay: rhBMP-2 dried onto protein-coated 96 well plates, release into PBS+0.1% BSA measured by hBMP-2 ELISA
recombinant human BMP-2 [3] = target: T1, recombinant human BMP-2; assay: rhBMP-2 dried onto protein-coated 24 well plates, total release over 24 hours measured by hBMP-2 ELISA

Amino acid sequences for entries named in this document (tags omitted). Residues count along the entry.
UniProt P12643, residues 283-396: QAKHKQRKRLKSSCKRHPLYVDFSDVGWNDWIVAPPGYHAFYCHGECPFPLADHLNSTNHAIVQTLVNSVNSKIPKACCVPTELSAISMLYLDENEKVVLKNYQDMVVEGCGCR

Measured: binding

B1: recombinant mouse Noggin (other, UniProt P97466 28-232, looked up)
chain: QHYLHIRPAPSDNLPLVDLIEHPDPIFDPKEKDLNETLLRSLLGGHYDPGFMATSPPEDRPGGGGGPAGGAEDLAELDQLLRQRPSGAMPSEIKGLEFSEGLAQGKKQRLSKKLRRKLQMWLWSQTFCPVLYAWNDLGSRFWPRYVKVGSCFSKRSCSVPEGMVCKPSKSVHLTVLRWRCQRRGGQRCGWIPIQYPIISECKCSC
binds: all assays above
